According to patent CN110156894A:
Results are given in words; binding and its absence hold for the method and conditions named. Some binding calls cover weakened binding; strength is not graded here.

Chains of the proteins cited; added tags and fusions are not shown. Lines headed by an entry give the natural chain unless they say otherwise; changes in a name come on top. Residues count along the entry.
UniProt Q9H6X2: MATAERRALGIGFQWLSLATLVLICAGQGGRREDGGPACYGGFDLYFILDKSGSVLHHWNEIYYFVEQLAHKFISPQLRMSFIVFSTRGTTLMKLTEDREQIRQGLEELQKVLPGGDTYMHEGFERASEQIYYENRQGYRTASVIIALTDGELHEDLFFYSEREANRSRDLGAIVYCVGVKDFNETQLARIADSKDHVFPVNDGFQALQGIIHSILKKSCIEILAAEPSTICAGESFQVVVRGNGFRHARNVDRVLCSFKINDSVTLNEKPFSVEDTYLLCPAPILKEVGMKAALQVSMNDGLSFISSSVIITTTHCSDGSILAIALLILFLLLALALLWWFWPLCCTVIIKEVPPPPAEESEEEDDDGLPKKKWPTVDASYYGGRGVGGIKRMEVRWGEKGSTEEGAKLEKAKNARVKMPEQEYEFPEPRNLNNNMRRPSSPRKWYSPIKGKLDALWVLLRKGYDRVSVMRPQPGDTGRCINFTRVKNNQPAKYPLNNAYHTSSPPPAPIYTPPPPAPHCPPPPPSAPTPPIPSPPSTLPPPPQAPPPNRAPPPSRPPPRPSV
TEM8 on TEM8过表达细胞: residues 33-564 of Q9H6X2
重组TEM8蛋白(义翘神州): residues 33-321 of Q9H6X2

Legend:
[1] = target: 重组TEM8蛋白(义翘神州) (human) (UniProt Q9H6X2); assay: ELISA, hybridoma supernatant on plate-bound recombinant TEM8, goat anti-mouse IgG-HRP
[2] = target: TEM8 on TEM8过表达细胞 (UniProt Q9H6X2); assay: cell-based assay on TEM8 stable CHO-K1 cells, Eu-labelled goat anti-mouse IgG
[3] = target: TEM8 on TEM8过表达细胞 (UniProt Q9H6X2); assay: phage scFv binding to TEM8 overexpressing cells, anti-M13-HRP, OD450

Row | Binder | binding [1] | binding [2] | binding [3]
1 | TEM8鼠源抗体 (antibody, V domains shown) VH: EVQLQESGPSLVKPSQTLSLTCSVTGDSITSDYWNWIRKFPGNKLEYMGYISYSGNTYTNPSLKSRISITRDTSKNQYYLQLNSMTTEDTATYYCARYKTIDSSFDVWGAGTTVTVSS VL: DIVMTQSPATLSVTPGDRVSLSCRASQNIRDFLHWYQQKSHESPRLLIKYASQSISGIPSRFSGSGSGSDFSLNINSVEPEDVGVYYCQNGHSFPYTFGGGTKLEIK | binds | binds | –
2 | HUT103 scFv phage clone (scFv, V domains shown) VH: EVQLQESGPGLVKPSETLSLTCTVTGDSISSDYWNWVRQAPGQRLEWMGYISYSGNTYTNPSLKSRITINRDTSKNQFSLQLNSVTPEDTAVYYCARYKTITSVLDVWGQGTTVTVSS VL: EIVMTQSPATLSVSPGERATLSCRASQNIRDFLHWYQQKPGQAPRLLIYYASQSISGIPARFSGSGSGTDFTLTISSLEPEDFAVYYCQNGHSFPYTFGGGTKVEIK | – | – | binds
3 | HUT104 scFv phage clone (scFv, V domains shown) VH: EVQLQESGPGLVKPSETLSLTCTVTGDSISSDYWNWVRQAPGQRLEWMGYISYSGNTYTNPSLKSRITINRDTSKNQFSLQLNSVTPEDTAVYYCARYKTITSAFDVWGQGTTVTVSS VL: EIVMTQSPATLSVSPGERATLSCRASQNIRDFLHWYQQKPGQAPRLLIYYASQSISGIPARFSGSGSGTDFTLTISSLEPEDFAVYYCQNGHSFPYTFGGGTKVEIK | – | – | binds
4 | HUT105 scFv phage clone (scFv, V domains shown) VH: EVQLQESGPGLVKPSETLSLTCTVTGDSISSDYWNWVRQAPGQRLEWMGYISYSGNTYTNPSLKSRITINRDTSKNQFSLQLNSVTPEDTAVYYCARYKTITSMFDVWGQGTTVTVSS VL: EIVMTQSPATLSVSPGERATLSCRASQNIRDFLHWYQQKPGQAPRLLIYYASQSISGIPARFSGSGSGTDFTLTISSLEPEDFAVYYCQNGHSFPYTFGGGTKVEIK | – | – | binds
